Results reported in publication PMC10352325, “Nitro-benzylideneoxymorphone, a bifunctional mu and delta opioid receptor ligand with high mu opioid receptor efficacy” (Frontiers in Pharmacology, 2023).

Tested on: DOPr
Set-up: species or system human
Conditions: ratio of binding Ki
Method: Cell lines, cell culture, and drug preparation. The hDOPr-CHO cell line was a generous gift from Dr. Larry Toll at the Torrey Pines Institute. The hMOPr- and hKOPr-CHO cell lines were generous gifts from John M. Streicher at the University of Arizona. All cells were cultured in 50:50 DMEM/F12 media with 10% heat-inactivated FBS and 1X penicillin/streptomycin supplement (all Gibco brand) in a 37°C humidified incubator with 5% CO2 atmosphere. Propagation cultures were further maintained with 500 μg/mL G418. Cultures were propagated for no more than 30 passages before discarding. […] Cell pellets were resuspended in 50 mM Tris HCl pH 7.4 and homogenized with a tissue grinder for 15–30 s on ice. Crude membranes were spun down at 15,000 g for 30 min. This process was repeated, and membrane preparations were stored at −80°C prior to use.
Briefly, these reactions were miniaturized to a 400 μL volume in 96 well plates and incubated at RT for 1 h at DOPr-, KOPr- and MOPr-CHO membrane preparations. The reactions were terminated by rapid filtration through 96-well format GF/B filter plates (PerkinElmer) and washed with cold 25 mM Tris HCl pH 7.4 buffer, dried, and added ECOLUME^TM scintillation cocktail from MP Biomedicals (Santa Cruz, CA, United States). The plates were read in a MicroBeta2 96-well format 6 detector scintillation counter (PerkinElmer). KI values were calculated using the IC50 of each competitor ligand and the previously established KD of ^3H-diprenorphine in each cell line using a competition binding model (GraphPad Prism 7.0).

Structure (SMILES)	Selectivity DOPr/MOPr (Ki)
CN1CC[C@]23c4c5ccc(O)c4O[C@H]2C(=O)/C(=C/c2ccc(F)cc2)C[C@@]3(O)[C@H]1C5 [Compound 7]	2.8
CN1CC[C@]23c4c5ccc(O)c4O[C@H]2C(=O)/C(=C/c2ccc(Cl)cc2)C[C@@]3(O)[C@H]1C5 [Compound 8]	2.0
CN1CC[C@]23c4c5ccc(O)c4O[C@H]2C(=O)/C(=C/c2ccc(Br)cc2)C[C@@]3(O)[C@H]1C5 [Compound 9]	3.0
COc1ccc(/C=C2\C[C@@]3(O)[C@H]4Cc5ccc(O)c6c5[C@@]3(CCN4C)[C@@H](O6)C2=O)cc1 [Compound 10]	3.4
CN1CC[C@]23c4c5ccc(O)c4O[C@H]2C(=O)/C(=C/c2ccc(O)cc2)C[C@@]3(O)[C@H]1C5 [Compound 11]	1.6
CN1CC[C@]23c4c5ccc(O)c4O[C@H]2C(=O)/C(=C/c2ccc([N+](=O)[O-])cc2)C[C@@]3(O)[C@H]1C5 [Compound 12, Nitro-benzylideneoxymorphone]	11
CN1CC[C@]23c4c5ccc(O)c4O[C@H]2C(=O)/C(=C/c2cccc4ccccc24)C[C@@]3(O)[C@H]1C5 [Compound 13]	0.7
CN1CC[C@]23c4c5ccc(O)c4O[C@H]2C(=O)/C(=C/c2ccc4ccccc4c2)C[C@@]3(O)[C@H]1C5 [Compound 14]	28
